Reference: PMC5996148
Some of the results follow. For some of these results: Construct or isoform of the protein are uncertain.

Tests used:
Assay in all cases: protein microarray (ProtoArray v5.0), streptavidin-Alexa Fluor 647
Details in all cases: 3'-biotin; 20 mM Tris (pH 7.5), 5 mM MgCl2, 100 mM KCl, 0.1% Tween-20, A/T-rich and random oligonucleotide blockers; temperature not stated; high values mean tight binding
MAGEA4 (human) = test system: MAGEA4 (human)
MAGEH1 = molecular target: T1, MAGEH1 (UniProt Q9H213)
T1 sequence: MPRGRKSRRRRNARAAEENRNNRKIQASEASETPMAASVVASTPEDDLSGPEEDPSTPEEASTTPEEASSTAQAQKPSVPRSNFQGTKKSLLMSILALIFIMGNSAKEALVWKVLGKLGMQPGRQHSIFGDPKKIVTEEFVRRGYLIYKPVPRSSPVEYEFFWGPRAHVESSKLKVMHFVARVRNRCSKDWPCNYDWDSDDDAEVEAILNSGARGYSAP

MAN2C1 (human) = test system: MAN2C1 (human)
MANSC1 (human) = test system: MANSC1 (human)
[1] = test system: MAP kinase-activated protein kinase 3 (human)
MAP3K7IP1 (human) = test system: MAP3K7IP1 (human)
MAP3K8 (human) = test system: MAP3K8 (human)
MAP4 (human) = test system: MAP4 (human)
MAPK6 (human) = test system: MAPK6 (human)
MAPK9 (human) = test system: MAPK9 (human)

What does the source list for “GGTGACAGGGGTATGGGGAGGGG [G4-2 biotinylated (Ct1)]”?
binding signal (MAGEA4 (human)): -0.388 z-score; binding signal (MAGEH1): 5.27 z-score; binding signal (MAN2C1 (human)): -0.365 z-score; binding signal (MANSC1 (human)): -0.389 z-score; binding signal [1]: 6.79 z-score; binding signal (MAP3K7IP1 (human)): -0.398 z-score; binding signal (MAP3K8 (human)): -0.36 z-score; binding signal (MAP4 (human)): -0.373 z-score; binding signal (MAPK6 (human)): -0.374 z-score; binding signal (MAPK9 (human)): -0.388 z-score
